Results as given in the supplement of paper PMC12282887.
These are raw signals, not scaled to a control.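 For antimicrobials the highest concentration approximated the MIC. Most other compounds topped out at 500 µM, and known inducer-like compounds reached up to 1 mM. Inocula for deletion strains were tenfold smaller, and any well growing below 10% of the overall median was considered non-growing.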

Test system: Escherichia coli BW25113
Assay: growth (OD600 area under curve, 8 h) (OD600 x h); higher = more growth
Experimental: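 E. coli BW25113 reporter strains (wild type, ΔmarA, ΔsoxS, Δrob, each carrying one of 8 lux reporter plasmids) were grown in 40 µl LB in 384-well plates at 37°C, 800 rpm, with each compound at 4 two-fold concentrations, in biological duplicates. Growth is the baseline-corrected OD600 area under the curve over 8 h (0-8 h WT, 1-9 h deletion strains).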

NC(N)=S [Thiourea]
growth
Conditions | reporter plasmid: EVC | reporter plasmid: acrABp | reporter plasmid: marRABp | reporter plasmid: micFp | reporter plasmid: ompFp | reporter plasmid: robp | reporter plasmid: soxSp | reporter plasmid: tolCp
4.8 µg/ml, genetic background: wild type | 2.79 | 3.175 | 3 | 2.95 | 3.03 | 2.96 | 2.86 | 2.81
4.8 µg/ml, genetic background: ΔmarA | 2.97 | 4.23 | 3.59 | 3.53 | 3.36 | 3.567 | 3.12 | 2.95
4.8 µg/ml, genetic background: Δrob | 2.97 | 3.63 | 3.33 | 2.87 | 2.52 | 2.96 | 2.7 | 2.87
4.8 µg/ml, genetic background: ΔsoxS | 3.23 | 3.58 | 3.25 | 2.9 | 2.8 | 3.337 | 3.13 | 3.13
9.5 µg/ml, genetic background: wild type | 2.76 | 3.0213 | 3.08 | 2.94 | 3.01 | 2.91 | 2.835 | 2.9
9.5 µg/ml, genetic background: ΔmarA | 2.88 | 4.17 | 3.39 | 3.36 | 3.53 | 3.38 | 3.07 | 2.85
9.5 µg/ml, genetic background: Δrob | 2.91 | 3.047 | 3.17 | 2.92 | 2.53 | 2.84 | 2.56 | 2.85
9.5 µg/ml, genetic background: ΔsoxS | 3.21 | 3.28 | 3.19 | 2.7 | 2.805 | 3.12 | 2.85 | 3.03
19 µg/ml, genetic background: wild type | 3.09 | 3.19 | 3.34 | 3.15 | 3.13 | 3.45 | 3 | 3.15
19 µg/ml, genetic background: ΔmarA | 2.97 | 4.39 | 3.8 | 3.32 | 3.67 | 3.93 | 3.08 | 2.97
19 µg/ml, genetic background: Δrob | 3.06 | 3.17 | 3.51 | 3.15 | 2.81 | 3.085 | 2.92 | 3.15
19 µg/ml, genetic background: ΔsoxS | 3.34 | 3.62 | 3.48 | 3.11 | 3.06 | 3.56 | 3.34 | 3.36
38.1 µg/ml, genetic background: wild type | 2.93 | 3.07 | 3.35 | 3.0195 | 3.1 | 3.392 | 2.98 | 3.01
38.1 µg/ml, genetic background: ΔmarA | 3.05 | 3.97 | 3.38 | 3.3 | 3.52 | 3.85 | 2.95 | 2.9
38.1 µg/ml, genetic background: Δrob | 3.18 | 2.78 | 3.37 | 3.02 | 2.58 | 2.72 | 2.86 | 3.06
38.1 µg/ml, genetic background: ΔsoxS | 3.35 | 3.148 | 3.11 | 2.94 | 2.77 | 3.14 | 3.11 | 3.31

CC(=O)N[C@H]1[C@@H](O[C@@H]2O[C@H](CC(O)[C@H]3O[C@@H](n4ccc(=O)[nH]c4=O)[C@H](O)[C@@H]3O)[C@H](O)[C@H](O)[C@H]2NC(=O)/C=C/CC(C)C)O[C@H](CO)[C@@H](N)[C@@H]1O (stereo partly specified) [Tunicamycin]
growth
Conditions | reporter plasmid: EVC | reporter plasmid: acrABp | reporter plasmid: marRABp | reporter plasmid: micFp | reporter plasmid: ompFp | reporter plasmid: robp | reporter plasmid: soxSp | reporter plasmid: tolCp
2.6 µg/ml, genetic background: wild type | 3.0493 | 2.85 | 3.14 | 2.64 | 3.03 | 3.18 | 2.7 | 2.6
2.6 µg/ml, genetic background: ΔmarA | 3.37 | 4.28 | 3.85 | 3.4 | 3.76 | 4.18 | 2.83 | 3.03
2.6 µg/ml, genetic background: Δrob | 2.92 | 2.82 | 3.14 | 2.72 | 2.87 | 2.79 | 2.63 | 2.47
2.6 µg/ml, genetic background: ΔsoxS | 3.42 | 3.32 | 3.41 | 2.79 | 3.2 | 3.38 | 2.98 | 2.95
5.3 µg/ml, genetic background: wild type | 3.04 | 2.98 | 3.15 | 2.72 | 3.139 | 3.14 | 2.654 | 2.62
5.3 µg/ml, genetic background: ΔmarA | 2.92 | 4.23 | 3.727 | 3.22 | 3.26 | 4.06 | 2.85 | 2.89
5.3 µg/ml, genetic background: Δrob | 2.92 | 2.98 | 3.2 | 2.9 | 2.69 | 2.73 | 2.55 | 2.57
5.3 µg/ml, genetic background: ΔsoxS | 3.5 | 3.3 | 3.43 | 3.08 | 3.26 | 3.34 | 3.1 | 3.23
10.6 µg/ml, genetic background: wild type | 3.22 | 2.8 | 3.17 | 2.91 | 3.149 | 3.28 | 2.95 | 2.93
10.6 µg/ml, genetic background: ΔmarA | 2.9366 | 3.71 | 3.45 | 3.38 | 3.47 | 3.95 | 2.74 | 2.9
10.6 µg/ml, genetic background: Δrob | 3.15 | 3.026 | 2.98 | 2.93 | 2.81 | 2.66 | 2.66 | 2.89
10.6 µg/ml, genetic background: ΔsoxS | 3.45 | 3.31 | 3.49 | 3.0122 | 3.18 | 3.52 | 3.29 | 3.3
21.1 µg/ml, genetic background: wild type | 3.35 | 2.34 | 2.59 | 2.768 | 2.4 | 2.81 | 2.82 | 3.09
21.1 µg/ml, genetic background: ΔmarA | 3.27 | 3.18 | 2.85 | 3.35 | 3.02 | 3.62 | 2.93 | 2.84
21.1 µg/ml, genetic background: Δrob | 3.36 | 2.19 | 2.72 | 3 | 1.84 | 2.18 | 2.82 | 3.18
21.1 µg/ml, genetic background: ΔsoxS | 3.46 | 2.76 | 2.67 | 2.88 | 2.57 | 2.67 | 3.13 | 3.52
